Source: patent US6258780A (priority 1997, dated 2001)

System: hippocampal slices, CA1 area
Type: cell-based

CN1[C@@H]2CC[C@H]1C[C@@H](OC(=O)C(CO)c1ccccc1)C2 (stereo partly shown) [atropine]
excitation response under co-exposure with physostigmine: absence of excitation response
